These are yes or no findings as the source states them, for the method shown. For some assays here: In cells and extracts the contact can be indirect. Some binding calls cover weakened binding; strength is not graded here. Where a sequence is shown, tags or fusion partners need not be part of it.
How the values were obtained:
[1] = biological target: JNKK2 carboxy-terminal deletion made with NotI-linearized pBS-JNKK2 (human) (UniProt O14733); assay: GST pull-down of 35S-labeled in vitro translated JNKK2 C-terminal deletions
[2] = biological target: ASK1, 35S-labeled in vitro translated full-length human ASK1 (human) (UniProt Q99683); assay: GST pull-down
[3] = biological target: C-ASK1 (amino acids 648 to 1375 of human ASK1), in vitro translated (human) (UniProt Q99683); assay: GST pull-down of 35S-labeled in vitro translated protein
[4] = biological target: MEKK4, 35S-labeled in vitro translated full-length MEKK4 (murine) (UniProt O08648); assay: as above
[5] = biological target: ASK1, 35S-labeled in vitro translated full-length human ASK1 (human) (UniProt Q99683); assay: as above
[6] = biological target: N-ASK1 (amino acids 1 to 756 of human ASK1), in vitro translated (human) (UniProt Q99683); assay: as above
[7] = biological target: T1, endogenous MKK7 (JNKK2) of 3DO cells (UniProt Q8CE90); assay: immunoprecipitation followed by Western blot, 3DO cells
T1 sequence (looked up): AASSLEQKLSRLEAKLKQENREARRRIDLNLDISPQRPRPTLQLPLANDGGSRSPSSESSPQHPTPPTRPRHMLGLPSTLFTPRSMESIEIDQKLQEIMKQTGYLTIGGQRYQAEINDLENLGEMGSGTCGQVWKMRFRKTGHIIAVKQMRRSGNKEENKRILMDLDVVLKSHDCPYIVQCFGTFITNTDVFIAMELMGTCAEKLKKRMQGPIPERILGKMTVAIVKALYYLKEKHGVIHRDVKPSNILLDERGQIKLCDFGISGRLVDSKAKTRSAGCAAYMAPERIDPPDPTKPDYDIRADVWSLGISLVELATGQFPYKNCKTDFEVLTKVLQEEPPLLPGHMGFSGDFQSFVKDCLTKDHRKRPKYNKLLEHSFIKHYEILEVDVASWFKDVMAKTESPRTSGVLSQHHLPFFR

Protein sequences, listed by entry. Tags and fused reporters are not part of them. Lines headed by an entry give the natural chain unless they say otherwise; changes in a name come on top. Residues count along the entry.
UniProt Q99683: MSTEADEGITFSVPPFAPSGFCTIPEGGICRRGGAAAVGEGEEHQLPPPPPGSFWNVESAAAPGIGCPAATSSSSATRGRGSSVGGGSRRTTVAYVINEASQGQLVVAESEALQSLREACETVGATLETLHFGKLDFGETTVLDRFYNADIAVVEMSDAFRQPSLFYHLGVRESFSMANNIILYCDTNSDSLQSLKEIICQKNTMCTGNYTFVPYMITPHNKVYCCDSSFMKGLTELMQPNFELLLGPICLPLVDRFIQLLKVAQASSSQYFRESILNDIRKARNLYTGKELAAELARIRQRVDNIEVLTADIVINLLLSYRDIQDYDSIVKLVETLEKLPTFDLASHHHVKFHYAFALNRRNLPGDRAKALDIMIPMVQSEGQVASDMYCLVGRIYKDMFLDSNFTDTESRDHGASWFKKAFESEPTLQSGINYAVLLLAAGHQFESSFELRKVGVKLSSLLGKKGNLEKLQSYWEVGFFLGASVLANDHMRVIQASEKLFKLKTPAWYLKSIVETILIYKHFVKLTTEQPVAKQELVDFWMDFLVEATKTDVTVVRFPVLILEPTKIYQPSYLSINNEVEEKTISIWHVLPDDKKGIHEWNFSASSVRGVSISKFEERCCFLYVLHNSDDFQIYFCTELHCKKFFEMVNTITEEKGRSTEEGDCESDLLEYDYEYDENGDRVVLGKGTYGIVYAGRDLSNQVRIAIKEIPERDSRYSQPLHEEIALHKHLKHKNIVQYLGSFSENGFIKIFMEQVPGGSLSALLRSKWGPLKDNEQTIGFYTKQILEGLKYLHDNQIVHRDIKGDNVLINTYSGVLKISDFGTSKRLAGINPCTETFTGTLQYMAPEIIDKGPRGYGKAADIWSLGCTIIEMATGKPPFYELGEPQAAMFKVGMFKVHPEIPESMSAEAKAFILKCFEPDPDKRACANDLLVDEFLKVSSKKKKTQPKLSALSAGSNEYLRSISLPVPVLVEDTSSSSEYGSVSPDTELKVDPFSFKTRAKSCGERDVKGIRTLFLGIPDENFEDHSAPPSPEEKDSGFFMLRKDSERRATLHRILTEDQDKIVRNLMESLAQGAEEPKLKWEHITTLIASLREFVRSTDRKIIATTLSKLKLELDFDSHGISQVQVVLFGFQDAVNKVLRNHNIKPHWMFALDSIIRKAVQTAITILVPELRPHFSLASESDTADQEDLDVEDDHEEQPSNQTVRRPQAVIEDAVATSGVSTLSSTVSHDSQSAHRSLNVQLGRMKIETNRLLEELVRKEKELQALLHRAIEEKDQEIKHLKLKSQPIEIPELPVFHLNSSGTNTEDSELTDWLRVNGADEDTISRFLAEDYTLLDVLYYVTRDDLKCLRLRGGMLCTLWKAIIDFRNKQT
N-ASK1 (amino acids 1 to 756 of human ASK1), in vitro translated: residues 1-756 of Q99683
C-ASK1 (amino acids 648 to 1375 of human ASK1), in vitro translated: residues 648-1374 of Q99683
UniProt O08648: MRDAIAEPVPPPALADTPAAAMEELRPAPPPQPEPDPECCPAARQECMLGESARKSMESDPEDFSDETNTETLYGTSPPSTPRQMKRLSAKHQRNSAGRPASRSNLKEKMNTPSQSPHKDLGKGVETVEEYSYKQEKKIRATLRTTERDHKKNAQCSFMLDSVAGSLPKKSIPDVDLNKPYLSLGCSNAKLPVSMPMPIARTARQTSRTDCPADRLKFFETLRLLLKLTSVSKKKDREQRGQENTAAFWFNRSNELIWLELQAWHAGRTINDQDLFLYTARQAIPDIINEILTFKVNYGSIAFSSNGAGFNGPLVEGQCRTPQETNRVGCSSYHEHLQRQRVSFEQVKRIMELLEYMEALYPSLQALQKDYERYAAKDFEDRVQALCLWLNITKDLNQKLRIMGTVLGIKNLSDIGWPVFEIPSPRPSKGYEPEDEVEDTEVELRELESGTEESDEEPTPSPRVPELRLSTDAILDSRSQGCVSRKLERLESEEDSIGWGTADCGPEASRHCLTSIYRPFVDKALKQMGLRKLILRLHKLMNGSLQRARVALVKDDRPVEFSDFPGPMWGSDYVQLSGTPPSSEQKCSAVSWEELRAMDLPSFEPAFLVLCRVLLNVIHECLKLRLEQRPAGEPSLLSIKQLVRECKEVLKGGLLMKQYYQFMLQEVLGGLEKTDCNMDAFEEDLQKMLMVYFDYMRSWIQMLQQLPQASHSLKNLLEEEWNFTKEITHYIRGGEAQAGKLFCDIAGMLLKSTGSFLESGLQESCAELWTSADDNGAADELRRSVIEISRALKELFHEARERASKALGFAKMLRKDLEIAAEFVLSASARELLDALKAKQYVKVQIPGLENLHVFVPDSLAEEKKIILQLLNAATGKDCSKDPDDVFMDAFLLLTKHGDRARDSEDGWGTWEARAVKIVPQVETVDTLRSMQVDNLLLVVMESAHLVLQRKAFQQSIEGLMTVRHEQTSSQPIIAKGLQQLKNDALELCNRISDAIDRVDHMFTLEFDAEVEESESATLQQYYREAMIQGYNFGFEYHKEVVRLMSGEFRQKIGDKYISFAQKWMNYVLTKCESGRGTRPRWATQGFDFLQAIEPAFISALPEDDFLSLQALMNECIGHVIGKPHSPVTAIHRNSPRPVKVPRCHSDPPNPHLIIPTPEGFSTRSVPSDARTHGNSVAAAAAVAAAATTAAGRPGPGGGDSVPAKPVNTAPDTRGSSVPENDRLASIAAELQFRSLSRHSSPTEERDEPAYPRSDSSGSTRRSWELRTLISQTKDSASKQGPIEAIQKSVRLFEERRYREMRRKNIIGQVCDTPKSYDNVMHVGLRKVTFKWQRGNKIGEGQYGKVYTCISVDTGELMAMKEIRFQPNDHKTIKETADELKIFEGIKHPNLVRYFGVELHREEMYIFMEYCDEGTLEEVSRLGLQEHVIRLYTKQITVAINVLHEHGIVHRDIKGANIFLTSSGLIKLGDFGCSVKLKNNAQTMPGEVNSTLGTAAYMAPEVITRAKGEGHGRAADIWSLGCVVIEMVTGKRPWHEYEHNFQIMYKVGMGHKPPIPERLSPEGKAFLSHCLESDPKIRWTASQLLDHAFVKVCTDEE

[8] = biological target: T1, endogenous MKK7 (JNKK2) of 3DO cells; assay: co-immunoprecipitation from P/I-treated 3DO cells with anti-Gadd45β monoclonal or anti-MKK7 antibodies

Measured: binding

B1: GST-Gadd45β (full-length murine Gadd45β directly fused to GST) (protein, UniProt P22339 1-160, looked up, not shown: a dimerising Fc or GST)
chain: MTLEELVASDNAVQKMQAVTAAVEQLLVAAQRQDRLTVGVYEAAKLMNVDPDSVVLCLLAIDEEEEDDIALQIHFTLIQSFCCDNDIDIVRVSGMQRLAQLLGEPAETLGTTEARDLHCLLVTNCHTDSWKSQGLVEVASYCEESRGNNQWVPYISLEER
not listed: [7] | [8]
binds: all other assays above

B2: Gadd45β in cells (untagged full-length: endogenous in 3DO cells and MEFs, or stably expressed in 3DO-IκBαM-Gadd45β clones) (protein, UniProt P22339 1-160, looked up)
chain: MTLEELVASDNAVQKMQAVTAAVEQLLVAAQRQDRLTVGVYEAAKLMNVDPDSVVLCLLAIDEEEEDDIALQIHFTLIQSFCCDNDIDIVRVSGMQRLAQLLGEPAETLGTTEARDLHCLLVTNCHTDSWKSQGLVEVASYCEESRGNNQWVPYISLEER
binds: [7] | [8]

From patent US20050265970A1
